# PubChem BioAssay AID1508597 | Cure First | 2020
# Aim: 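Knock-downs altering ovarian cancer cell survival with or without PARP inhibitor rucaparib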 (primary screen)
# Cells: human ovarian carcinoma lines grown from tumours: OCI-P5x (papillary serous) and OCI-C5x (clear cell)
# Reagents: siRNA pool against human genes, 1.25 pmol siRNA per well
# Time to read-out: 72 h or 96 h, depending on the cell culture
# Treatment: rucaparib 20 µM (about IC30) or vehicle, present until read-out
# Rucaparib or vehicle: Rucaparib
# Cell line: OCI-C5x (clear cell)
# Read-out: 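Luminescent ATP-based viability assay read 72 or 96 h after transfection, depending on culture, given as normalised percent viability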
# Scale: viability, normalised: higher = more viable cells remaining
# Active means: 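Active when normalised viability falls below 80 percent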
# Meaning of the calls: active = viability under 80%; inactive = viability 80% or more
# Shown is a random part of the about 2,100 reagents, in one setting of the screen. 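Calls flag viability under 80% in either arm, not effects specific to rucaparib; the reference for percent is not stated.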 Unmarked entries are inactive. Some reagents were tested in more than one well and are listed for each. Not given: the 100% reference.
target gene,technical replicate,"viability, normalised (%)"
"NBL1 (NBL1, DAN family BMP antagonist)",1,61.6 (active)
"NBL1 (NBL1, DAN family BMP antagonist)",2,50.1 (active)
"NBL1 (NBL1, DAN family BMP antagonist)",3,65.4 (active)
USP21 (ubiquitin specific peptidase 21),1,84
USP21 (ubiquitin specific peptidase 21),2,74.5 (active)
USP21 (ubiquitin specific peptidase 21),3,52.2 (active)
"PIM2 (Pim-2 proto-oncogene, serine/threonine kinase)",1,63.9 (active)
"PIM2 (Pim-2 proto-oncogene, serine/threonine kinase)",2,71.5 (active)
"PIM2 (Pim-2 proto-oncogene, serine/threonine kinase)",3,42.8 (active)
NHEJ1 (non-homologous end joining factor 1),1,50 (active)
NHEJ1 (non-homologous end joining factor 1),1,39 (active)
NHEJ1 (non-homologous end joining factor 1),2,59.1 (active)
NHEJ1 (non-homologous end joining factor 1),2,36.7 (active)
NHEJ1 (non-homologous end joining factor 1),3,58.9 (active)
NHEJ1 (non-homologous end joining factor 1),3,40.2 (active)
PRKAR2A,1,53.5 (active)
PRKAR2A,2,78.1 (active)
PRKAR2A,3,57.8 (active)
PLCB2 (phospholipase C beta 2),1,68.2 (active)
PLCB2 (phospholipase C beta 2),2,61.1 (active)
PLCB2 (phospholipase C beta 2),3,61.6 (active)
"EMSY (EMSY transcriptional repressor, BRCA2 interacting)",1,71.4 (active)
"EMSY (EMSY transcriptional repressor, BRCA2 interacting)",1,58.2 (active)
"EMSY (EMSY transcriptional repressor, BRCA2 interacting)",2,64.5 (active)
"EMSY (EMSY transcriptional repressor, BRCA2 interacting)",2,41.6 (active)
"EMSY (EMSY transcriptional repressor, BRCA2 interacting)",3,34.1 (active)
"EMSY (EMSY transcriptional repressor, BRCA2 interacting)",3,66.6 (active)
HERC3 (HECT and RLD domain containing E3 ubiquitin protein ligase 3),1,53.3 (active)
HERC3 (HECT and RLD domain containing E3 ubiquitin protein ligase 3),2,34.7 (active)
HERC3 (HECT and RLD domain containing E3 ubiquitin protein ligase 3),3,50.4 (active)
PIK3CD,1,41.9 (active)
PIK3CD,2,47.4 (active)
PIK3CD,3,44 (active)
IRAK4 (interleukin 1 receptor associated kinase 4),1,57 (active)
IRAK4 (interleukin 1 receptor associated kinase 4),2,64.9 (active)
IRAK4 (interleukin 1 receptor associated kinase 4),3,53 (active)
NUDT1 (nudix hydrolase 1),1,62.6 (active)
NUDT1 (nudix hydrolase 1),2,70.8 (active)
NUDT1 (nudix hydrolase 1),3,56.9 (active)
HDAC4 (histone deacetylase 4),1,59.5 (active)
HDAC4 (histone deacetylase 4),2,52.5 (active)
HDAC4 (histone deacetylase 4),3,62.1 (active)
ATAT1 (alpha tubulin acetyltransferase 1),1,43.9 (active)
ATAT1 (alpha tubulin acetyltransferase 1),2,33.2 (active)
ATAT1 (alpha tubulin acetyltransferase 1),3,23.7 (active)
SBK1 (SH3 domain binding kinase 1),1,45.3 (active)
SBK1 (SH3 domain binding kinase 1),2,57.5 (active)
SBK1 (SH3 domain binding kinase 1),3,63.2 (active)
MTRFR (mitochondrial translation release factor in rescue),1,70.6 (active)
MTRFR (mitochondrial translation release factor in rescue),2,65.9 (active)
MTRFR (mitochondrial translation release factor in rescue),3,36.4 (active)
PCDHB11 (protocadherin beta 11),1,59.4 (active)
PCDHB11 (protocadherin beta 11),2,34.7 (active)
PCDHB11 (protocadherin beta 11),3,31.3 (active)
MNAT1 (MNAT1 component of CDK activating kinase),1,36.8 (active)
MNAT1 (MNAT1 component of CDK activating kinase),2,51.2 (active)
MNAT1 (MNAT1 component of CDK activating kinase),3,40.8 (active)
NFRKB (nuclear factor related to kappaB binding protein),1,56.1 (active)
NFRKB (nuclear factor related to kappaB binding protein),2,47.6 (active)
NFRKB (nuclear factor related to kappaB binding protein),3,46.8 (active)
"PFKFB3 (6-phosphofructo-2-kinase/fructose-2,6-biphosphatase 3)",1,35.4 (active)
"PFKFB3 (6-phosphofructo-2-kinase/fructose-2,6-biphosphatase 3)",2,34.6 (active)
"PFKFB3 (6-phosphofructo-2-kinase/fructose-2,6-biphosphatase 3)",3,33.2 (active)
TYRO3 (TYRO3 protein tyrosine kinase),1,63.3 (active)
TYRO3 (TYRO3 protein tyrosine kinase),2,65.5 (active)
TYRO3 (TYRO3 protein tyrosine kinase),3,62 (active)
DSTYK (dual serine/threonine and tyrosine protein kinase),1,48 (active)
DSTYK (dual serine/threonine and tyrosine protein kinase),2,42.3 (active)
DSTYK (dual serine/threonine and tyrosine protein kinase),3,38.4 (active)
CDK2 (cyclin dependent kinase 2),1,50.4 (active)
CDK2 (cyclin dependent kinase 2),1,57.3 (active)
CDK2 (cyclin dependent kinase 2),2,41.1 (active)
CDK2 (cyclin dependent kinase 2),2,63.2 (active)
CDK2 (cyclin dependent kinase 2),3,51.7 (active)
CDK2 (cyclin dependent kinase 2),3,51.3 (active)

Records above whose gene name starts with A or a (3):
target gene,technical replicate,"viability, normalised (%)"
ATAT1 (alpha tubulin acetyltransferase 1),1,43.9 (active)
ATAT1 (alpha tubulin acetyltransferase 1),2,33.2 (active)
ATAT1 (alpha tubulin acetyltransferase 1),3,23.7 (active)
